{"source": "patent US20170145472A1", "about": "“METHOD OF DETECTING HELICASE ACTIVITY” (University of Macau, priority 2015, published 2017)", "assay": "Direct quenching control on complex 9 or the complex 9+G-quadruplex ensemble", "conditions": "20 μM ciprofloxacin", "data": [{"smiles": "O=C(O)c1cn(C2CC2)c2cc(N3CCNCC3)c(F)cc2c1=O", "note": "[ciprofloxacin, reference compound]", "values": [{"measurement": "direct quenching effect on luminescence of complex 9 or the complex 9+G-quadruplex ensemble", "result": "no direct quenching effect"}]}]}
